In US20170168041A1, “Polymers And Oligomers With Aggregation-Induced Emission Characteristics For Imaging And Image-Guided Therapy” (National University of Singapore, priority 2014, published 2017):
pIC50: −log10 of the molar value.

System: MDA-MB-231 cells
Assay: MTT anti-proliferative assay
Format: cell-based
Conditions: not affected by light irradiation
Method: Subsequently, the anti-proliferative properties of TPECB-Pt-D5-cRGD towards MDA-MB-231 cells, U87-MG cells, MCF-7 cells and 293T cells were evaluated by MTT assays. The MDA-MB-231 cells are cisplatin resistant while U87-MG cells are cisplatin-sensitive. […] It should be noted that the cytotoxicity of cisplatin to both cells was not affected by the light irradiation.

## N.N.[Cl][Pt][Cl] [cisplatin]
  pIC50: 4.48
